Measured values from the supplement of paper PMC8728848.
The list shows a part of the results.

Columns and labels:
Assay in all cases: glycan array binding signal (z-score within array); higher = stronger binding
Conditions in all cases: glycan notation: IUPAC condensed, linker removed
[1] = target: Neu5Ac(a2-6)GlcNAc(b1-4)GlcNAc(b1-4)GlcNAc
Summary of the method: (§1)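 The binding signal is a Z-score computed within each array and averaged over linkers. Arrays of the same protein sequence at different concentrations or buffers were also averaged together. Data originate from 3228 arrays in the Consortium for Functional Glycomics database, kept only where the protein sequence was available.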

Neu5Ac(a2-8)Neu5Ac = target: Neu5Ac(a2-8)Neu5Ac
Summary of the method: as §1

[2] = target: Neu5Ac(a2-8)Neu5Ac(a2-3)Gal(b1-3)GalNAc(b1-4)[Neu5Ac(a2-3)]Gal(b1-4)Glc
Summary of the method: as §1

[3] = target: Neu5Ac(a2-8)Neu5Ac(a2-3)Gal(b1-3)GalNAc(b1-4)[Neu5Ac(a2-8)Neu5Ac(a2-3)]Gal(b1-4)Glc
Summary of the method: as §1

[4] = target: Neu5Ac(a2-8)Neu5Ac(a2-3)Gal(b1-4)Glc
Summary of the method: as §1

[5] = target: Neu5Ac(a2-8)Neu5Ac(a2-3)Gal(b1-4)GlcNAc
Summary of the method: as §1

[6] = target: Neu5Ac(a2-8)Neu5Ac(a2-3)[Gal(b1-3)GalNAc(b1-4)]Gal(b1-4)Glc
Summary of the method: as §1

[7] = target: Neu5Ac(a2-8)Neu5Ac(a2-3)[GalNAc(b1-4)]Gal(b1-4)Glc
Summary of the method: as §1

[8] = target: Neu5Ac(a2-8)Neu5Ac(a2-8)Neu5Ac
Summary of the method: as §1

[9] = target: Neu5Ac(a2-8)Neu5Ac(a2-8)Neu5Ac(a2-3)Gal(b1-4)Glc
Summary of the method: as §1

[10] = target: Neu5Ac(a2-8)Neu5Ac(a2-8)Neu5Ac(a2-3)[Gal(b1-3)GalNAc(b1-4)]Gal(b1-4)Glc
Summary of the method: as §1

[11] = target: Neu5Ac(a2-8)Neu5Ac(a2-8)Neu5Ac(a2-3)[GalNAc(b1-4)]Gal(b1-4)Glc
Summary of the method: as §1

[12] = target: Neu5Ac(a2-8)Neu5Ac(a2-8)Neu5Ac(a2-8)Neu5Ac(a2-3)[GalNAc(b1-4)]Gal(b1-4)Glc
Summary of the method: as §1

[13] = target: Neu5Ac(a2-8)Neu5Gc(a2-3)Gal(b1-4)GlcNAc
Summary of the method: as §1

[14] = target: Neu5Ac(b2-6)Gal(b1-4)GlcNAc
Summary of the method: as §1

Neu5Ac(b2-6)GalNAc = target: Neu5Ac(b2-6)GalNAc
Summary of the method: as §1

[15] = target: Neu5Ac9Ac(a2-3)Gal(b1-3)GlcNAc
Summary of the method: as §1

[16] = target: Neu5Ac9Ac(a2-3)Gal(b1-4)GlcNAc
Summary of the method: as §1

[17] = target: Neu5Ac9Ac(a2-6)Gal(b1-4)GlcNAc
Summary of the method: as §1

[18] = target: Neu5Gc(a2-3)Gal(b1-3)GlcNAc
Summary of the method: as §1

[19] = target: Neu5Gc(a2-3)Gal(b1-3)[Fuc(a1-4)]GlcNAc
Summary of the method: as §1

Neu5Gc(a2-3)Gal(b1-4)Glc = target: Neu5Gc(a2-3)Gal(b1-4)Glc
Summary of the method: as §1

[20] = target: Neu5Gc(a2-3)Gal(b1-4)GlcNAc
Summary of the method: as §1

[21] = target: Neu5Gc(a2-3)Gal(b1-4)GlcNAc(b1-3)Gal(b1-4)GlcNAc(b1-2)Man(a1-3)[Neu5Gc(a2-3)Gal(b1-4)GlcNAc(b1-3)Gal(b1-4)GlcNAc(b1-2)Man(a1-6)]Man(b1-4)GlcNAc(b1-4)GlcNAc
Summary of the method: as §1

[22] = target: Neu5Gc(a2-3)Gal(b1-4)[Fuc(a1-3)]GlcNAc
Summary of the method: as §1

[23] = target: Neu5Gc(a2-6)Gal(b1-4)GlcNAc
Summary of the method: as §1

Neu5Gc(a2-6)GalNAc = target: Neu5Gc(a2-6)GalNAc
Summary of the method: as §1

[24] = target: Neu5Gc(a2-8)Neu5Ac(a2-3)Gal(b1-4)GlcNAc
Summary of the method: as §1

[25] = target: Neu5Gc(a2-8)Neu5Gc(a2-3)Gal(b1-4)GlcNAc
Summary of the method: as §1

[26] = target: Neu5Gc(a2-8)Neu5Gc(a2-3)Gal(b1-4)GlcNAc(b1-3)Gal(b1-4)GlcNAc
Summary of the method: as §1

[27] = target: Neu5Gc(a2-8)Neu5Gc(a2-6)Gal(b1-4)GlcNAc
Summary of the method: as §1

[28] = target: Neu5Gc(b2-6)Gal(b1-4)GlcNAc
Summary of the method: as §1

B1: Awp3 (Candida glabrata), B4UN32 (protein)
chain: MISFVTLLAILGLLSISWADQTVRSVAGDQRVTDPVIVGDNSILDYYGGSNYDFSNNFEIGRGTLYIGKESYFSSFQSAPTDVPNSFHLLIKNTNNLQNNGQFIIENIKRHANQCSNSSIQVFPINFQNDGEFEIISGGVEGRCCLPTSVIAPQNFLNNGKFYYKVLTDTGSIYSGSCMQNVDIGASTTTTVNNNLWEFTGSINAQINGAVSGAAQINLDGSNMFVNANTFSGQVVNLINGGSFLQTSDPLSNIVVINGLGTSDTGVTSIAVKGKGKSFTYNPSSGIVKLTTVEGKTYAYQIGCGYNTKKFITNNDSGASYESADNFFVLTYSEPYSPQTCQLENSSIFSSNFISTSTSSSSSSSSASSLPSSMSSSLPSSLSSSLSSSLSSSMSSSMSSLFIIPPPYTTTRSSGSSIIDTEIVSFYSTTDSPGHTITGTTTTTLYGPHTHSSVSTPSSSSESSTTSNSSIESSSLPHTSVSSTPESSITPSSNTISSSPTSDFSSVQSSSIMESSSVVASSSVINSSSIVDSSSSSASSLPSSMSSSLSSSMSSSLPSSMSSSLSSSLSSSLSSSMSSSMSSLFIIPPPYTTTRSSGSSIIDTEIVSFYSTTDSPGHTITGTTTTTLYGPHTHSSVSTPSSSSESSTTSNSSIESSSLPHTSVSSTPESSITPSSNTISSSPTSDFSSVQSSSIMESSSVVASSSVINSSSIVDSSSSSASSLPSSMPSSLPSSMSSSLSSSMSSSLSSSLSSSLSSSMSSSMSSLFIIPPPYTTTRSSGSSIIDTEIVSFYSTTDSPGHTITGTTTTTLYGPHTHSSVSTPSSSSESSTTSNSSIESSSLPHTSVSSTPESSITPSSNTISSSPTSDFSSVQSSSIMESSSVVASSSATQSSSVINSSSIVDSSSSSASSLPSSMPSSLPSSLSSSLSSSLSSSMSSSMSSLFIIPPPYTTTRSSGSSIIDTEIVSFYSTTDSPGHTITGTTTTTLYESSIYSSSSSTIQESELSNTSRTTMTSNSSVSISSTSSRSSFSNTKSSTIVISQSASLPDSKTDIILSTSSNIGYSSRSLLSDLGTSISDSDIHHSVLHSTESYSSNESGTNPFTSIASLSNFIPESSSHTSTALGSENSVISSDILTTMSHPVATNSGDKPTTPKRSEQVSTTMTSSGPTPDTSSFDTDGMSAYSRPEFTTNSLEVNKSSTSQLGNNKQTFSNLQLESTRPHSENEVDNNTRLLQSIQQSSTYGTNNVNPLSPTGSISIPLTEDGQGDNNNWNSPATNDLCTQISFNLTATTITVTDRITITDSIHDISSEVITSYIYQTIVDQKTVTQTVDGKSLANKMSSIPKPSSRSLIQPQPPVAIELQEGAASTSRVSLVSLFISIILVLL
**Q.** What does the source list for B1?
**A.** glycan array binding signal (z-score) [1]: 2.42; glycan array binding signal (z-score) (Neu5Ac(a2-8)Neu5Ac): -0.366; glycan array binding signal (z-score) [2]: -0.587; glycan array binding signal (z-score) [3]: 1.14; glycan array binding signal (z-score) [4]: -0.509; glycan array binding signal (z-score) [5]: -1.76; glycan array binding signal (z-score) [6]: -1.1; glycan array binding signal (z-score) [7]: 1; glycan array binding signal (z-score) [8]: 0.259; glycan array binding signal (z-score) [9]: -0.433; glycan array binding signal (z-score) [10]: -1.34; glycan array binding signal (z-score) [11]: -0.558; glycan array binding signal (z-score) [12]: 1.87; glycan array binding signal (z-score) [13]: -0.294; glycan array binding signal (z-score) [14]: 0.404; glycan array binding signal (z-score) (Neu5Ac(b2-6)GalNAc): 0.885; glycan array binding signal (z-score) [15]: 0.617; glycan array binding signal (z-score) [16]: -0.226; glycan array binding signal (z-score) [17]: 0.167; glycan array binding signal (z-score) [18]: -0.401; glycan array binding signal (z-score) [19]: -0.441; glycan array binding signal (z-score) (Neu5Gc(a2-3)Gal(b1-4)Glc): -0.678; glycan array binding signal (z-score) [20]: 0.694; glycan array binding signal (z-score) [21]: 0.149; glycan array binding signal (z-score) [22]: 0.932; glycan array binding signal (z-score) [23]: 1.13; glycan array binding signal (z-score) (Neu5Gc(a2-6)GalNAc): -0.186; glycan array binding signal (z-score) [24]: -0.196; glycan array binding signal (z-score) [25]: 0.721; glycan array binding signal (z-score) [26]: -0.951; glycan array binding signal (z-score) [27]: -0.772; glycan array binding signal (z-score) [28]: -0.832
